At least one compound was matched to its structure with a doubt left. *1 amine or outer side, *2 acyl side, *3 side chain or, on linkers, in order; H or OH if unused. Where a SMILES comes first, the peptide text is derived from it. [ ]: non-standard residue; d: D form. The star is where a group is joined. γ4hIle = CC[C@H](C)[C@@H](CCC(=O)[*:2])N[*:1]; Benzoyl(3,4-F2) = O=C(c1ccc(F)c(F)c1)*; Sta = CC(C)C[C@H](N)[C@@H](O)CC(=O)O; His(π-Me) = Cn1cncc1C[C@H](N)C(=O)O; Ala(cPr) = N[C@@H](CC1CC1)C(=O)O; Ava = NCCCCC(=O)O; Sar = CNCC(=O)O
Target: T1, human bombesin 2 receptor (GRPR) (Homo sapiens, UniProt P30550)
T1 construct: using GRPR-containing cell membranes (Perkin Elmer); purchased Perkin Elmer
Assay: competitive receptor-binding assay (scintillation proximity assay) with 125I-[Tyr4]-Bombesin
Settings: GRPR-containing cell membranes, 90 minutes at room temperature, Table 2, B1 = CO
Procedure: In vitro binding affinity and specificity of Bombesin analogs for the human bombesin 2 receptor (GRPR) were assessed via a competitive receptor-binding assay using ^125I-[Tyr^4]-Bombesin (Perkin Elmer; specific activity 81.4 TBq/mmol) as GRPR-specific radioligand. The assay was performed based on the scintillation proximity assay (SPA) technology (Carpenter JW et al., Meth Mol Biol 2002; 190:31-49) using GRPR-containing cell membranes (Perkin Elmer) and wheat germ agglutinin (WGA)-coated PVT beads (Amersham Bioscience).
Briefly, GRPR-containing membranes and WGA-PVT beads were mixed in assay buffer (50 mM Tris/HCl pH 7.2, 5 mM MgCl2, 1 mM EGTA, Complete protease inhibitor (Roche Diagnostics GmbH) and 0.3% PEI) to give final concentrations of approximately 100 µg/ml protein and 40 mg/ml PVT-SPA beads. The ligand ^125I-[Tyr^4]-Bombesin was diluted to 0.5 nM in assay buffer. The test compounds were dissolved in DMSO to give 1 mM stock solutions Later on, they were diluted in assay buffer to 8 pM - 1.5 µM.
The assay was then performed as follows: First, 10 µl of compound solution to be tested for binding were placed in white 384 well plates (Optiplate-384, Perkin-Elmer). At next, 20 µl GRPR/WGA-PVT bead mixture and 20 µl of the ligand solution were added. After 90 minutes incubation at room temperature, another 50 µl of assay buffer were added, the plate sealed and centrifuged for 10 min at 520xg at room temperature. Signals were measured in a TopCount (Perkin Elmer) for 1 min integration time per well. The IC50 was calculated by nonlinear regression using the GraFit data analysis software (Erithacus Software Ltd.). Furthermore, the KI was calculated based on the IC50 for test compound as well as the KD and the concentration of the ligand ^125I-[Tyr^4]-Bombesin. Experiments were done with quadruple samples.
The Binding affinities measured for all the cold F-19 compounds are listed Table 2. […]

Sequences of proteins named here, by UniProt entry; tags and fusion partners are left off. A change or cut given only in a name is not applied to a line headed by its entry.
UniProt P30550: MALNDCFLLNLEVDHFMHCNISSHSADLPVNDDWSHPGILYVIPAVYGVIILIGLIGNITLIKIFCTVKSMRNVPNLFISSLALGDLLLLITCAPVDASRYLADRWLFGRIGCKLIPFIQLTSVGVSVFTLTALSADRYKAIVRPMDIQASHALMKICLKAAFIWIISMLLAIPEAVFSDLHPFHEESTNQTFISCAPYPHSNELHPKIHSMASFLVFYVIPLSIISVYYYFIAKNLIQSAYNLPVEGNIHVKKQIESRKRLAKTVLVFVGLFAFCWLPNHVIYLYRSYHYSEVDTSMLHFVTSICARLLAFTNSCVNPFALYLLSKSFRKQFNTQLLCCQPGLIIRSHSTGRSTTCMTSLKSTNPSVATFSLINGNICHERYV

Row | Structure (SMILES) | Ki
1 | CC(C)C[C@H](NC(=O)[C@H](Cc1cncn1C)NC(=O)CNC(=O)[C@@H](NC(=O)[C@H](C)NC(=O)[C@H](Cc1c[nH]c2ccccc12)NC(=O)[C@H](CCC(N)=O)NC(=O)CCCCNC(=O)c1ccc(F)c(F)c1)C(C)C)[C@@H](O)CC(=O)N[C@@H](CC1CC1)C(N)=O [IIB-a-42, 3,4-[19]Difluorobenzoyl-Ava-Gln-Trp-Ala-Val-Gly-His(3Me)-Sta-Cpa-NH2] ({Benzoyl(3,4-F2)-Ava}-QWAVG[His(π-Me)][Sta][Ala(cPr)]-NH2) | 14.2 nM
2 | CC[C@H](C)[C@@H](CCC(=O)N[C@@H](CC1CC1)C(N)=O)NC(=O)[C@H](Cc1c[nH]cn1)NC(=O)CN(C)C(=O)[C@@H](NC(=O)[C@H](C)NC(=O)[C@H](Cc1c[nH]c2ccccc12)NC(=O)[C@H](CCC(N)=O)NC(=O)CCCCNC(=O)c1ccc(F)c(F)c1)C(C)C [IIB-a-27, 3,4-[19]Difluorobenzoyl-Ava-Gln-Trp-Ala-Val-NMeGly-His-FA02010-Cpa-NH2] ({Benzoyl(3,4-F2)-Ava}-QWAV[Sar]H[γ4hIle][Ala(cPr)]-NH2) | 2.4 nM
3 | CC(C)C[C@H](NC(=O)[C@H](Cc1cncn1C)NC(=O)CN(C)C(=O)[C@@H](NC(=O)[C@H](C)NC(=O)[C@H](Cc1c[nH]c2ccccc12)NC(=O)[C@H](CCC(N)=O)NC(=O)CCCCNC(=O)c1ccc(F)c(F)c1)C(C)C)[C@@H](O)CC(=O)N[C@@H](CC1CC1)C(N)=O [IIB-a-35, 3,4-[19]Difluorobenzoyl-Ava-Gln-Trp-Ala-Val-NMeGly-His(3Me)-Sta-Cpa-NH2] ({Benzoyl(3,4-F2)-Ava}-QWAV[Sar][His(π-Me)][Sta][Ala(cPr)]-NH2) | 31 nM

From patent EP1985624A2, “Single step method of radiofluorination of biologically active compounds or biomolecules” (Bayer Schering Pharma Aktiengesellschaft, priority 2007, dated 2008)
